PubChem BioAssay AID1259254 | NCATS, 2017
In all, the deposit lists about 59,000 reagents; this is an unselected part. Over the whole deposit, about 1,550 (2.6%) were called active. 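G2 share is only a proxy for re-replication; each gene was hit by three separate siRNAs, and active genes were retested.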 Reagents against one gene are numbered here. Further read-outs or replicates are left out here. Not stated in the record: the amount of reagent.

Test: 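Genome-wide screen for genes that prevent DNA re-replication in cancer cells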 (primary screen)
System: human HCT116 colorectal cancer cells
Reagent: single siRNA against human genes
Timing: 3 days
Read-out: 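Nuclei stained with Hoechst and imaged; cell-cycle phase assigned by DNA content; G2 share scaled per plate, non-targeting siRNA 0%, GMNN siRNA 100%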
Direction: G2 robust z-score and G2 cells, % of GMNN control: higher = more G2 cells, more excess DNA replication
Hit rule: 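Active siRNAs have a G2 robust z of 5 or more median absolute deviations over the median, which in these data means about 38% or higher of GMNN control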

The first 5 entries as a preview:
no.	target gene	siRNA no.	G2 robust z-score	G2 cells, % of GMNN control	Outcome
1	MTND5P10 (GeneID 643031)	1	0.935	9.54	inactive
2	MTND5P10 (GeneID 643031)	2	1.27	11.9	inactive
3	MTND5P10 (GeneID 643031)	3	-0.518	-0.674	inactive
4	FGF10 (GeneID 2255)	1	-1.05	-4.42	inactive
5	FGF10 (GeneID 2255)	2	-0.812	-2.74	inactive

The listing, from the start:
no.	target gene	siRNA no.	G2 robust z-score	G2 cells, % of GMNN control	Outcome
1	MTND5P10 (GeneID 643031)	1	0.935	9.54	inactive
2	MTND5P10 (GeneID 643031)	2	1.27	11.9	inactive
3	MTND5P10 (GeneID 643031)	3	-0.518	-0.674	inactive
4	FGF10 (GeneID 2255)	1	-1.05	-4.42	inactive
5	FGF10 (GeneID 2255)	2	-0.812	-2.74	inactive
6	FGF10 (GeneID 2255)	3	-0.972	-3.87	inactive
7	OR52E2 (GeneID 119678)	1	-0.155	1.88	inactive
8	OR52E2 (GeneID 119678)	2	1.06	10.4	inactive
9	OR52E2 (GeneID 119678)	3	-0.0647	2.51	inactive
10	YWHAEP7 (GeneID 284100)	1	-0.652	-1.62	inactive
11	YWHAEP7 (GeneID 284100)	2	1.19	11.3	inactive
12	YWHAEP7 (GeneID 284100)	3	0.152	4.04	inactive
13	IKZF4 (GeneID 64375)	1	0.46	6.21	inactive
14	IKZF4 (GeneID 64375)	2	-0.687	-1.87	inactive
15	IKZF4 (GeneID 64375)	3	-0.129	2.06	inactive
16	GPR45 (GeneID 11250)	1	3.08	24.7	inactive
17	GPR45 (GeneID 11250)	2	-0.0747	2.44	inactive
18	GPR45 (GeneID 11250)	3	-0.0531	2.59	inactive
19	CD163L1 (GeneID 283316)	1	-1.15	-5.12	inactive
20	CD163L1 (GeneID 283316)	2	-0.473	-0.363	inactive
21	CD163L1 (GeneID 283316)	3	4.16	32.2	inactive
22	PRTFDC1 (GeneID 56952)	1	5.31	40.3	active
23	PRTFDC1 (GeneID 56952)	2	0.149	4.02	inactive
24	PRTFDC1 (GeneID 56952)	3	3.21	25.5	inactive
25	MIMS2 (GeneID 116151)	1	-0.944	-3.68	inactive
26	MIMS2 (GeneID 116151)	2	0.0941	3.63	inactive
27	MIMS2 (GeneID 116151)	3	-0.862	-3.1	inactive
28	SAP30BP (GeneID 29115)	1	-0.78	-2.52	inactive
29	SAP30BP (GeneID 29115)	2	-1.22	-5.61	inactive
30	SAP30BP (GeneID 29115)	3	0.00281	2.99	inactive
31	QPCTL (GeneID 54814)	1	1.91	16.4	inactive
32	QPCTL (GeneID 54814)	2	-0.0882	2.35	inactive
33	QPCTL (GeneID 54814)	3	-0.472	-0.353	inactive
34	FAM174B (GeneID 400451)	1	0.162	4.11	inactive
35	FAM174B (GeneID 400451)	2	-0.934	-3.6	inactive
36	FAM174B (GeneID 400451)	3	-0.862	-3.1	inactive
37	ECRG4 (GeneID 84417)	1	3.54	27.9	inactive
38	ECRG4 (GeneID 84417)	2	0.15	4.03	inactive
39	ECRG4 (GeneID 84417)	3	-1.03	-4.27	inactive
40	TESMIN (GeneID 9633)	1	2.55	20.9	inactive
41	TESMIN (GeneID 9633)	2	-0.746	-2.28	inactive
42	TESMIN (GeneID 9633)	3	-1.08	-4.63	inactive
43	AFDN-DT (GeneID 653483)	1	0.386	5.68	inactive
44	AFDN-DT (GeneID 653483)	2	-0.413	0.0649	inactive
45	AFDN-DT (GeneID 653483)	3	-0.0813	2.4	inactive
46	LINC00705 (GeneID 338588)	1	-0.522	-0.709	inactive
47	LINC00705 (GeneID 338588)	2	0.945	9.62	inactive
48	LINC00705 (GeneID 338588)	3	-0.38	0.291	inactive
